# Results are given in words; binding and its absence hold for the method and conditions named. Some entries that bind do so weakly or less than the wild type.
# Sequences of proteins named here, by UniProt entry; tags and fusion partners are left off. A change or cut given only in a name is not applied to a line headed by its entry. Residues count along the entry.
# UniProt P30730, residues 27-700: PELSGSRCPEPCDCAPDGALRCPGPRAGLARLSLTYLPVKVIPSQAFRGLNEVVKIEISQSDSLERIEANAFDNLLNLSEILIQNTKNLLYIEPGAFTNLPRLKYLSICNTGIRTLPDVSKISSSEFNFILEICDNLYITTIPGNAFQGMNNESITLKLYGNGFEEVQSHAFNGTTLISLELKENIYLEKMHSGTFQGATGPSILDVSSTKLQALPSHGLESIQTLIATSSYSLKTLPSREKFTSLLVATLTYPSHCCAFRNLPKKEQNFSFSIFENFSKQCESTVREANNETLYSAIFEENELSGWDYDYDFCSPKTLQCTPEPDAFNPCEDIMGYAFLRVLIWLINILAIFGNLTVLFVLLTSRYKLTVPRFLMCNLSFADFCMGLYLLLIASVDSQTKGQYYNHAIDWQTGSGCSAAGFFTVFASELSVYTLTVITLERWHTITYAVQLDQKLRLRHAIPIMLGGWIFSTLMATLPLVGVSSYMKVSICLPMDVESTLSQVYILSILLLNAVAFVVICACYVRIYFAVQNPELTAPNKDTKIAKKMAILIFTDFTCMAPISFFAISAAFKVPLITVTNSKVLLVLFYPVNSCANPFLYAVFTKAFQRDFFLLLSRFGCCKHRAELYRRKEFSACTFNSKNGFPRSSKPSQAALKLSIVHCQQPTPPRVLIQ
# UniProt P01215: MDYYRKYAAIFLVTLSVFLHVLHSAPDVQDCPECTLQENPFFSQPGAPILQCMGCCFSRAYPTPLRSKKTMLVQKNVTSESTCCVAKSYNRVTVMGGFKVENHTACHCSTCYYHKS
# Target: CG/LH receptor of transformed murine Leydig cells (MA-10) (murine) (UniProt P30730)
# Assay: told in words; bioactivity assay on murine Leydig MA-10 cells
substance,measurement,value
mutant hCG heterodimer of wild type common α-subunit and hCG-βN77D (from UniProt P01215 25-116; P0DN86 21-160) (ligand),binding,binds

# Source: patent US20040265972A1
